Assay results: PubChem BioAssay AID1688 (National Center for Advancing Translational Sciences (NCATS), 2009)
Out of some 220,000 compounds screened, about 2,400 (1.1%) were called active. This list was built around the results that the source calls inconclusive (neither active nor inactive); the mix of calls is not that of the screen. Calls follow the shape of the dose curve; as a rule, active = well fitted inhibition curve with a large enough effect; inconclusive = small, poorly fitted or top-dose-only effect, or effect the other way; inactive = no such curve, though single readings can be large or run the other way. Potencies beside an inconclusive call are fits to weak or partial responses and may not hold up.

Assay: qHTS Multiplex Assay to Identify Dual Action Probes in a Cell Model of Huntington: Aggregate Formation (GFP); also: nearly all actives have a fitted effect of over 60% in size
Conditions: PC12 HttQ103-GFP aggregates, Acumen cytometry, 40 h; activity change, negative = inhibition: at 46.1 µM (top of the series) unless noted
Outline: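 Compounds (qHTS titration) were added to PC12 cells expressing an ecdysone-driven HTT exon 1 Q103–GFP fusion after induction with 100 nM tebufenozide. Aggregate formation was measured as GFP objects in cell lysates.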
% is scaled to controls: 0 for no effect and ±100 for the full control effect; potency is read from the fitted curve at half-maximal effect.

Row | Compound | Potency | activity change, negative = inhibition
1 | COc1ccc(Br)cc1CNc1ccc(O)cc1 | inconclusive: 15.8 µM [activator, single point] | 
2 | Cn1c(=O)c(NCCc2ccccc2)c2c3c(cccc31)C(=O)c1ccccc1-2 | active: 10 µM | 
3 | COc1cccc(-c2csc(N3CCN(C(=S)Nc4ccc(Cl)cc4)CC3)n2)c1 | inconclusive: 22.4 µM [inhibitor, single point] | 
4 | O=C(CSc1nnc(-c2ccccc2)n1Cc1ccco1)Nc1ccc(S(=O)(=O)N2CCCC2)cc1 | inconclusive: 10 µM [inhibitor, partial curve] | 
5 | CC(=O)c1ccc(Nc2cc(C)nc3ccc(C)cc23)cc1 | inconclusive: 1.26 µM [activator, single point] | 
6 | Cc1ccc(N=C2NC(=O)c3cc([N+](=O)[O-])ccc32)cc1 |  | inactive: 5.44%
7 | Clc1ccc(-c2nnc3n2CCCC3)cc1 |  | inactive: 13.6%
8 | CCOC(=O)CSc1nnc(CNC(=O)c2ccc(OC)cc2)n1C1CCCCC1 |  | inactive: -3.39%
9 | O=C(Nc1ccc(C(=O)N2CCOCC2)cc1)Nc1cccc(Cl)c1 | active: 11.2 µM | 
10 | CN(C)/C=C/C=C1C(=O)CCCC1=O |  | inactive: 6.68%
11 | O=S(=O)(NCCc1csc(-c2cccnc2)n1)c1cccs1 | inconclusive: 11.2 µM [inhibitor, single point] | 
12 | COc1ccc(OC)c(-c2c3cc(O)c(=O)cc-3oc3cc(O)c(O)cc23)c1 | active: 5.01 µM | 
13 | FC(F)(F)c1nc2ncc(Cl)cc2[nH]1 | inconclusive: 35.5 µM [inhibitor, single point] | 
14 | Cc1ccc(NC(=O)c2ccc(N3CCOCC3)c([N+](=O)[O-])c2)cc1S(=O)(=O)N1CCOCC1 | inconclusive: 17.8 µM [inhibitor, single point] | 
15 | COc1ccc2nc(N3CCC(C)CC3)c(C#N)cc2c1 | inconclusive: 17.8 µM [activator, single point] | 
16 | C=C1C(=O)[C@@]23[C@H](O)C[C@@H]4C(C)(C)CC[C@H](O)[C@@]4(C)[C@@H]2CC[C@@H]1[C@H]3O | active: 2.82 µM | 
17 | CCn1nc(C)c(NC(=O)/C=C/c2cnn(C)c2)c1C |  | inactive: 8.56%
18 | Cc1nc(C)c(C(=O)N/N=C/c2cn(C)c3ccccc23)s1 |  | inactive: -12.5%
19 | CC(CCc1ccccc1)NC(=O)COc1cc(F)ccc1[N+](=O)[O-] (stereo unspecified) | inconclusive: 17.8 µM [inhibitor, single point] | 
20 | CN1C(=O)[C@@H]2[C@@H]3C[C@@H]([C@H]4ON=C(c5ccc(Cl)cc5Cl)[C@@H]34)[C@@H]2C1=O | inconclusive: 8.91 µM [inhibitor, partial curve] | 
21 | Cc1nn(C(C)C(=O)NCc2cccs2)c(C)c1[N+](=O)[O-] (stereo unspecified) | inconclusive: 0.316 µM [activator, full curve, poor fit] | 

2 entries from above in a different format.
Row	Compound	Potency	activity change, negative = inhibition
4	O=C(CSc1nnc(-c2ccccc2)n1Cc1ccco1)Nc1ccc(S(=O)(=O)N2CCCC2)cc1	inconclusive: 10 µM [inhibitor, partial curve]	
5	CC(=O)c1ccc(Nc2cc(C)nc3ccc(C)cc23)cc1	inconclusive: 1.26 µM [activator, single point]	
